# From PubChem BioAssay AID504861 (Broad Institute, 2011)
# Out of some 1,200 compounds screened, about 290 (24%) were called active. Inconclusive results (about 3%) are left out.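 Rule for the calls: active = compounds lowering cell viability signal with fitted half-maximal concentration at most ten times their highest tested concentration; inconclusive = flat fit with 30 to 70% signal loss, or poor fit; inactive = the rest.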 The list shows a part of the results, in another mix than the full data. Entries with a potency or affinity are not part of this list.
# Assay: cytotoxicity in HEK293T cells – cell-based, CellTiter-Glo luminescence, cherry-picks, cytotoxicity control for LMP1 NF-kB inhibitor project, dose response (AID 504861)
# Conditions: HEK293T viability, CellTiter-Glo ATP luminescence, 48 h; at 26 µM (top of the series)
row,Structure (SMILES),"activity change, negative = cytotoxicity"
1,Cc1ccc2c(c1)N(CC(=O)N1CCCC1)C(=O)c1cccnc1O2,inactive: 7.59%
2,CCOc1ccc(NC(=O)Cn2cc(C(=O)CC)c3ccccc32)cc1,inactive: 9.94%
3,Cc1cc(C)cc(C(=O)NCCC(=O)NCc2cc(=O)n(C)c(=O)n2C)c1,inactive: 8.31%
4,COc1ccc(S(=O)(=O)NCC(c2cccnc2)N2CCN(c3ccc(F)cc3)CC2)cc1C (stereo unspecified),inactive: -2.1%
5,Cc1cc2ccccc2n1CCNC(=O)COc1ccc2ccccc2c1,inactive: -4.26%
6,COc1ccc(CCC(=O)Nc2ccc(C)c([N+](=O)[O-])c2)cc1,inactive: -8.9%
7,COc1cc2cc(C(=O)N3CCN(c4ccccc4OC)CC3)[nH]c2cc1OC,inactive: 3.07%
8,COc1ccc(-c2csc3ncnc(NCCCO)c23)cc1,inactive: -3.85%
9,Cc1nnc(SCC(=O)N2CCC(c3noc4ccc(F)cc34)CC2)s1,inactive: -0.633%
10,O=C(CSc1nnc(-c2cccc(S(=O)(=O)N3CCOCC3)c2)n1C1CCCCCC1)NCc1ccccc1,inactive: 4.37%
11,COc1ccc(N2C3=[N+](CC2(C)O)c2ccccc2CC3)cc1 (stereo unspecified),inactive: -2.75%
12,CC[C@]1(C(=O)OC)[C@H]2C(=O)N(Cc3ccccc3)C(=O)[C@H]2[C@H]2CN=C(SCc3ccc(Cl)cc3)N21,inactive: -11.5%
13,OCCN(CCO)CC(O)COCCC12CC3CC(CC(C3)C1)C2 (stereo unspecified),inactive: 6.07%
14,COc1cccc(/C=N\NC(=O)c2ccc(C)nc2)c1,inactive: 0.683%
15,Cc1ccc(S(=O)(=O)N2CCN(C(=O)CSc3nnnn3C)C2)cc1,inactive: 10.2%
16,CCOC(=O)c1cc(-c2ccccc2)n(CC(=O)Nc2cccc(OC)c2)c1C,inactive: 2.45%
17,Cc1ccc(CCNC(=O)Cc2ccc(NC3=NC4CS(=O)(=O)CC4S3)cc2)cc1 (stereo unspecified),inactive: 6.82%
18,CC1CCc2nc(N)c(C#N)c(-c3cccnc3)c2C1 (stereo unspecified),inactive: -2.74%

# Fetched by structure from the entries so far (2):
row,Structure (SMILES),"activity change, negative = cytotoxicity"
12,CC[C@]1(C(=O)OC)[C@H]2C(=O)N(Cc3ccccc3)C(=O)[C@H]2[C@H]2CN=C(SCc3ccc(Cl)cc3)N21,inactive: -11.5%
4,COc1ccc(S(=O)(=O)NCC(c2cccnc2)N2CCN(c3ccc(F)cc3)CC2)cc1C (stereo unspecified),inactive: -2.1%

# (cont.)

row,Structure (SMILES),"activity change, negative = cytotoxicity"
1,O=C(NN1C(=O)C2C3C=CC(C4CC34)C2C1=O)c1cccc(Cl)c1 (stereo unspecified),inactive: 9.14%
2,Cn1nc(-c2ccc(N3CCOCC3)c(NS(=O)(=O)c3ccccc3)c2)c2ccccc2c1=O,inactive: 5.2%
3,CC(C)OCCCNC(=O)C1CCC(CNS(=O)(=O)c2ccccc2)CC1 (stereo unspecified),inactive: 0.66%
4,COc1ccc(N2C(=O)C(Cl)=C(NCc3ccccc3)C2=O)cc1,inactive: 14.4%
5,O=C(/C=C/Nc1cccc(C(F)(F)F)c1)C(F)(F)F,inactive: -1.79%
6,C[C@@H](OC(=O)c1[nH]cnc1C(=O)N1CCc2ccccc2C1)c1ccccc1,inactive: -0.366%
7,COc1ccc(-c2[nH]ncc2/C=N\NS(=O)(=O)c2ccc(Cl)cc2)cc1,inactive: 2.52%
8,Nc1ccn(C2CCCO2)c(=O)n1 (stereo unspecified),inactive: 6.87%
9,NC1=NC(=O)NC1(c1ccccc1)c1ccccc1,inactive: 9.4%
10,CCN(Cc1ccncc1)C(=O)CCc1ccccc1,inactive: 0.206%
11,CC(C)(C)c1nc2c(s1)CCc1onc(-c3ccc(Br)cc3)c1-2,inactive: 8.91%
12,CNC(=S)N1N=C(c2cccs2)CC1c1ccc(F)cc1 (stereo unspecified),inactive: -8.27%
13,O=C1NC(=O)/C(=C\c2ccc(OCc3cccc(C(=O)O)c3)c(Cl)c2)N1,inactive: 0.955%
14,COc1ccccc1-n1c(-c2ccccc2)n[nH]c1=S,inactive: 12.9%
15,O=C(CN1C(=O)c2ccccc2S1(=O)=O)c1ccc(F)c(F)c1,inactive: 6.66%
16,NC(=O)OCC(COC(N)=O)c1ccccc1,inactive: 4.36%
17,CCCSc1ccc([C@@H]2[C@H]3C(=O)N(C)C(=O)[C@H]3[C@]3(C(=O)OC)CCCN23)cc1OC,inactive: 6.23%
18,N=c1c(-c2nc3ccccc3[nH]2)cc(C(=O)c2cccs2)nn1-c1ccccc1,inactive: 3.84%
